{"source": "paper PMC7794433", "about": "“Peptide signaling without feedback in signal production operates as a true quorum sensing communication system in Bacillus subtilis” (Communications Biology, 2021)", "system": "ComX biosensor BD2876 (ΔcomQ, srfA-lacZ)", "experiment": "Biosensor based quantification of ComX concentration in B. subtilis spent medium", "parameters": "species or system Bacillus subtilis", "note": "Values joined by “and” are separate entries in the source; they are usually repeats but may differ in a detail not shown here. Identical values can stand only once.", "data": [{"sequence": "ADPITRQWGD [ComX, isoprenylated (farnesylated) quorum sensing signal peptide of B. subtilis, HPLC purified from E. coli ED367]", "values": [{"measurement": "ComX concentration per unit of culture optical density", "setting": "B. subtilis", "result": 10, "unit": "nM a.u.^−1"}, {"measurement": "ComX concentration in spent medium, early exponential growth phase", "setting": "B. subtilis PS-216 ΔcomP, 37 °C CM", "result": "about 0.1 nM"}, {"measurement": "Stationary phase ComX concentration compared to typical AHL concentrations of Gram-negative bacteria", "setting": "ComX 10 nM in B. subtilis, AHL from refs 35–38", "result": "100–1000 times"}, {"measurement": "Exponent of ComX concentration versus OD650, all points fitted", "setting": "before, when all points were taken into the fitting procedure (incl. < LOD 0.1 nM)", "result": "2.05±0.10"}, {"measurement": "ComX concentration in tested spent medium, example determination", "setting": "example of Supplementary Figure 1, PS-216 ΔcomP spent medium", "result": 3, "unit": "nM"}, {"measurement": "Parameter b (exponent) of allometric function, ComX concentration versus OD650", "setting": "spent medium of B. subtilis PS-216 ΔcomP, batch fermenter 37 °C, n = 3, data ≥ LOD", "result": "2.09 ± 0.10 and 2.09"}, {"measurement": "Parameter a of allometric function SM = aN^b", "setting": "spent medium of B. subtilis PS-216 ΔcomP, batch fermenter 37 °C, n = 3 biological replicates", "result": "9.6 ± 0.6", "unit": "nM a.u.^−2.09"}, {"measurement": "Parameter b (exponent), reanalyzed published data", "setting": "strain JH642, reanalyzed with eq 1, activity of spent medium, ref Bacon Schneider et al. 19", "result": "1.4 ± 0.4"}]}]}
